PubChem BioAssay AID1259260 – Sanger Institute, 2017

Purpose: 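Kinases whose knock-down kills colorectal cancer cells or boosts drug effects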 (primary screen)
Cells: human NCI-H716 colorectal cancer cells
Reagent: siRNA pool against human genes
Challenge: anchor drugs BYL719 (alpelisib) 1 µM, cetuximab 5 µg/ml or trametinib 10 nM, each at a dose chosen to harm viability only mildly; DMSO vehicle for the knock-down-alone arm
Detection: 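Replicate-averaged viability relative to a non-targeting pool, a robust z-score for knock-down alone, and a synergy score per anchor drug versus each agent alone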
Reading the numbers: viability robust z-score, siRNA alone: higher = more surviving cells; below -3 called essential; viability vs control, no drug: higher = more surviving cells
Units: viability vs control, no drug in fraction of control
Hit rule: 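a knock-down counts as essential if its no-drug robust z-score is lower than -3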
Calls: active = essential (knock-down alone lowers viability); inactive = no essential effect
Shown is one part, drawn at random, of 794 reagents tested. 13 of them (1.6%) were called active. 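Calls reflect only knock-down without drug; synergy above 0.15 was grouped apart and does not change the call.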 Unmarked entries are inactive. Viability is capped at 1. Further read-outs or replicates are left out here. No sequences are given here. The record does not give: the amount of reagent, the time to read-out.

How did the screen score CDKN2C?
viability robust z-score, siRNA alone: 0.602; viability vs control, no drug: 1

For TPK1, how do the results read?
viability robust z-score, siRNA alone: -2.06; viability vs control, no drug: 0.723

What is on record for MAP3K1?
viability robust z-score, siRNA alone: 0.283; viability vs control, no drug: 0.967

How did the screen score CAMK2B?
viability robust z-score, siRNA alone: 0.602; viability vs control, no drug: 1

With THNSL1, how do the results read?
viability robust z-score, siRNA alone: 0.602; viability vs control, no drug: 1

What did the screen give for FRK?
viability robust z-score, siRNA alone: 0.602; viability vs control, no drug: 1

For CSNK1G3, what was measured?
viability robust z-score, siRNA alone: 0.602; viability vs control, no drug: 1

With NME4, what was measured?
viability robust z-score, siRNA alone: 0.602; viability vs control, no drug: 1

With NADK, what does the deposit list?
viability robust z-score, siRNA alone: 0.602; viability vs control, no drug: 1

Targets listed so far whose target name begins with C or c:
CDKN2C — viability robust z-score, siRNA alone = 0.602; viability vs control, no drug = 1
CAMK2B — viability robust z-score, siRNA alone = 0.602; viability vs control, no drug = 1
CSNK1G3 — viability robust z-score, siRNA alone = 0.602; viability vs control, no drug = 1

Next entries:
What did the screen give for SOS2?
viability robust z-score, siRNA alone: 0.602; viability vs control, no drug: 1

How did the screen score MYLK3?
viability robust z-score, siRNA alone: -0.742; viability vs control, no drug: 0.86

With PDGFRA, how do the results read?
viability robust z-score, siRNA alone: 0.602; viability vs control, no drug: 1

With CAMK2G, what was measured?
viability robust z-score, siRNA alone: 0.602; viability vs control, no drug: 1

With CDKN1B, what was measured?
viability robust z-score, siRNA alone: 0.602; viability vs control, no drug: 1

How did the screen score SMG1?
viability robust z-score, siRNA alone: 0.602; viability vs control, no drug: 1

What did the screen give for ADCK5?
viability robust z-score, siRNA alone: 0.602; viability vs control, no drug: 1

What did the screen give for EPHA8?
viability robust z-score, siRNA alone: -1.44; viability vs control, no drug: 0.787

What is on record for CSNK1E?
viability robust z-score, siRNA alone: -1.63; viability vs control, no drug: 0.768

With ROR1, what was measured?
viability robust z-score, siRNA alone: -0.0608; viability vs control, no drug: 0.931
